{"source": "patent US20260125371A1", "about": "“METHOD FOR INHIBITING CLOSTRIDIOIDES DIFFICILE SPORE GERMINATION” (UNIVERSITY OF NOTRE DAME DU LAC, priority 2022, published 2026)", "tested_on": "THP-1 cells", "assay": "Lactate dehydrogenase (LDH) cytotoxicity assay", "type": "cell-based, human", "conditions": "LDH IC50 over MIC", "note": "Some results were stated once for a whole list of compounds, not compound by compound.", "data": [{"smiles": "O=[N+]([O-])c1cnc(-c2nc(-c3ccc(OC4CCCC4)cc3)no2)[nH]1", "note": "[Compound 57, 3-(4-(Cyclopentyloxy)phenyl)-5-(4-nitro-1H-imidazol-2-yl)-1,2,4-oxadiazole]", "values": [{"measurement": "selectivity (IC50/MIC)", "value": "above 50"}]}]}
